# Experimental data from PubChem BioAssay AID1347076 (National Center for Advancing Translational Sciences (NCATS), 2019).
# The whole screen tested about 400,000 compounds, of which about 13,000 (3.2%) were called active. Inconclusive results, whose numbers are uncertain, are shown with a selection of clear calls. Calls follow the shape of the dose curve; as a rule, active = well fitted cell-killing curve with a large enough effect; inconclusive = small, poorly fitted or top-dose-only effect, or effect the other way; inactive = flat fitted curve, though single readings scatter. Potencies beside an inconclusive call are fits to weak or partial responses and may not hold up.
# Assay: qHTS assay for MDR1-selective chemotherapeutics: Primary screen using the drug-selected MDR subline cells KB-V1; also: nearly all actives have a fitted effect of over 60% in size
# Settings: KB-V1 MDR cells viability, CellTiter-Glo, 72 h; activity change, negative = cytotoxicity: at 46.1 µM (top of the series)
# Summary of the method: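 Potencies derive from concentration-effect curves fitted to normalized luminescence (CellTiter-Glo) of KB-V1 cells treated for 72 h at 37 degrees C in phenol-red-free DMEM containing 10% FBS.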
# % is scaled to controls: 0 for no effect and ±100 for the full control effect; potency is read from the fitted curve at half-maximal effect.
SMILES,Potency,"activity change, negative = cytotoxicity"
O=C(c1cccc2nccnc12)N1CCCC(Nc2ccc(F)c(F)c2)C1 (centres undefined),"inconclusive: 23.1 µM [cytotoxic, single point]",–
CCCSc1nc(NCc2ccco2)c2c3c(sc2n1)COC(C)(CC)C3 (centres undefined),active: 16.4 µM,–
COc1ccc(NS(=O)(=O)c2ccc(-c3ccccn3)s2)cc1,"inconclusive: 11.6 µM [cytotoxic, partial curve, poor fit]",–
Cc1ccc(CSc2nc(-c3ccccc3C)nc3c2Cc2c(CO)cnc(C)c2O3)cc1,"inconclusive: 18.4 µM [cytotoxic, single point]",–
O=C1c2ccccc2S(=O)(=O)c2cc(C(=O)N3CCN(c4c(Cl)cncc4Cl)CC3)ccc21,–,inactive: -1.84%
O=S(=O)(Nc1cccc(Cl)c1)c1ccc2oc(=S)[nH]c2c1,–,inactive: -8.96%
CCOC(=O)C1CCCN(C(=O)c2ccc3sccc3c2)CC1 (centres undefined),"inconclusive: 23.1 µM [cytotoxic, single point]",–
CCCS(=O)(=O)c1nc(S(=O)(=O)c2ccc(C)cc2)c(N2CCCC(C)C2)s1 (centres undefined),"inconclusive: 2.91 µM [cytotoxic, full curve]",–
CCC(=O)N1CCc2cc(OC)c(OC)cc2C1COc1ccc2c(C)cc(=O)oc2c1 (centres undefined),–,inactive: 2.18%
COc1ccc(CNC(=O)N2CCN(S(=O)(=O)c3ccc(C)cc3C)CC2)cc1,"inconclusive: 29.1 µM [cytotoxic, single point]",–
CC(C)c1ccc(CNc2n[nH]c(-c3ccco3)n2)cc1,–,inactive: 44.1%
Cc1cc2nc(CCN(C(=S)NCC(C)C)C3CCCC3)[nH]c2cc1C,active: 16.4 µM,–
CCn1c2ccccc2c2cc(NC(=O)c3cccc(OC)c3)ccc21,"inconclusive: 7.08 µM [cytotoxic, full curve, poor fit]",–
CC(C)Oc1ccc(CNC(=O)Cn2nc(N3CCN(c4ccccc4)CC3)ccc2=O)cc1,–,inactive: 12.2%
Cc1ccc(CNc2nc(NCC3CC3)nc3ccsc23)c(C)c1,"inconclusive: 23.1 µM [cytotoxic, single point]",–
CCOc1ccc(-c2nc(SCC(=O)Nc3cc(F)ccc3F)n3[nH]c(=O)cc3n2)cc1,"inconclusive: 20.6 µM [rising, single point]",–
c1cc[n+](CCC[n+]2ccccc2)cc1,"inconclusive: 16.4 µM [rising, partial curve, poor fit]",–
Cc1ccc(NC(=O)C2=COCCO2)cc1S(=O)(=O)N1CCOCC1,–,inactive: -26.7%
CCOC(=O)[C@]12CCCC=C1N(Cc1cccc3ccccc13)C(=O)[C@H](CC(=O)NCc1cccs1)C2,active: 16.4 µM,–
CC1CC(C)CN(S(=O)(=O)c2ccc(C(=O)Nc3nnc(C4CC4)o3)cc2)C1 (centres undefined),active: 5.17 µM,–
CN(Cc1ccc(Cl)cc1Cl)C(=O)c1cccc(S(=O)(=O)N2CCN(c3ccccc3)CC2)c1,"inconclusive: 2.06 µM [cytotoxic, full curve, poor fit]",–
COc1ccc(N(C(=O)c2snc(C(N)=O)c2N)C(C(=O)NC2CCCC2)c2ccc(C)o2)c(OC)c1 (centres undefined),"inconclusive: 29.1 µM [cytotoxic, single point]",–
Nc1nc(Cl)nc2c1ncn2[C@@H]1O[C@H](CO)[C@@H](O)[C@H]1O,active: 16.4 µM,–
O=C(O)C1C2C=CC(O2)C1C(=O)Nc1cccc(C(F)(F)F)c1 (centres undefined),"inconclusive: 20.6 µM [rising, single point]",–
CCC(C)NC(=O)c1cnc2n(c1=O)CCS2 (centres undefined),"inconclusive: 29.1 µM [rising, single point]",–

SMILES,Potency,"activity change, negative = cytotoxicity"
O=C(Nc1cccnc1)Nc1ccc(Br)cc1Cl,"inconclusive: 20.6 µM [cytotoxic, partial curve]",–
Cn1ncc2c(NCc3ccc(F)cc3)ncnc21,–,inactive: -1.33%
COC(/C=C/Nc1ccc(OC)cc1)=C(C#N)C#N,–,inactive: -0.616%
S=c1[nH]cnc2scc(-c3ccc(Cl)cc3)c12,"inconclusive: 29.1 µM [cytotoxic, single point]",–
CCN(CC)S(=O)(=O)c1ccc(-c2nnc(SCC(=O)Nc3nnc(C)s3)n2CC)cc1,"inconclusive: 2.31 µM [rising, full curve]",–
O=C(CCl)NCCCCCCCCCNC(=O)CCl,"inconclusive: 29.1 µM [cytotoxic, single point]",–
Cn1c(=O)c2c(SCC(=O)N3CCc4ccccc43)nc(-c3ccc(Cl)cc3)nc2n(C)c1=O,"inconclusive: 29.1 µM [cytotoxic, single point]",–
CC1CCCCN1S(=O)(=O)c1ccc(S(=O)(=O)NCCc2ccncc2)cc1 (centres undefined),active: 20.6 µM,–
Cc1ccc(NC(=O)C2CCCN2c2nn3c(=O)cc(C)nc3s2)cc1 (centres undefined),–,inconclusive: -32.6% [cytotoxic]
CCOc1ccc(N(C)S(=O)(=O)c2ccc(C)c(C(=O)NCc3cccs3)c2)cc1,"inconclusive: 32.6 µM [cytotoxic, single point]",–
CCOc1ccccc1N1CCN(Cc2cnc(-c3ccccc3)[nH]2)CC1,–,inactive: 0%
COc1ccc(CC(C#N)(CO)c2nc3ccccc3[nH]2)cc1 (centres undefined),"inconclusive: 29.1 µM [cytotoxic, single point]",–
N#Cc1ccc(C23OCCN2CCn2nc4ccccc4c23)cc1 (centres undefined),–,inactive: -6.83%
Cc1cc([N+](=O)[O-])ccc1NC(=O)/C=C/c1cccs1,active: 8.2 µM,–
Cc1ccc(NC(=O)C(=O)NCC2(c3ccccc3)CCCC2)cc1C,"inconclusive: 29.1 µM [rising, single point]",–
CCCC(=O)N(C)c1ccc(/C=C2\C=Cc3ccccc32)cc1,–,inactive: -10.4%
Cc1c(CN2CCCCC2C)c(=O)n(-c2ccccc2)n1C (centres undefined),–,inactive: -10.7%
CC/C(=N\NC(=O)c1c(-c2ccccc2)noc1C)c1ccc(C)o1,active: 13 µM,–
Cn1c(=O)oc2cc(S(=O)(=O)NCc3ccccc3)ccc21,"inconclusive: 32.6 µM [cytotoxic, single point]",–
COc1ccc(CN(C)C[C@@H]2OCCCC[C@@H](C)Oc3ccc(N(C)C)cc3C(=O)N([C@H](C)CO)C[C@@H]2C)cc1,–,inactive: 7.89%
O=C(CN1C(=O)COc2ccc(S(=O)(=O)N3CCOCC3)cc21)N1CCN(c2ccccc2F)CC1,–,inactive: -27.5%
CCCc1cc(=O)[nH]c(SCC(=O)c2ccc3c(c2)OCCO3)n1,"inconclusive: 20.6 µM [cytotoxic, single point]",–
COc1ccc(S(=O)(=O)NCc2ccc(C(=O)N3CCN(Cc4ccccc4)CC3)cc2)cc1,–,inactive: -2.6%
CCOc1nc(C#N)nc(N2CCOCC2)n1,–,inactive: 0.49%
CC(O)c1c(OCc2ccccc2)ncnc1OCc1ccccc1 (centres undefined),"inconclusive: 2.91 µM [cytotoxic, partial curve, poor fit]",–

# Reformatted with tabs: part of the list above.
SMILES	Potency	activity change, negative = cytotoxicity
O=C(c1cccc2nccnc12)N1CCCC(Nc2ccc(F)c(F)c2)C1 (centres undefined)	inconclusive: 23.1 µM [cytotoxic, single point]	–
CCCSc1nc(NCc2ccco2)c2c3c(sc2n1)COC(C)(CC)C3 (centres undefined)	active: 16.4 µM	–
O=C1c2ccccc2S(=O)(=O)c2cc(C(=O)N3CCN(c4c(Cl)cncc4Cl)CC3)ccc21	–	inactive: -1.84%
O=S(=O)(Nc1cccc(Cl)c1)c1ccc2oc(=S)[nH]c2c1	–	inactive: -8.96%
CCC(=O)N1CCc2cc(OC)c(OC)cc2C1COc1ccc2c(C)cc(=O)oc2c1 (centres undefined)	–	inactive: 2.18%
COc1ccc(CNC(=O)N2CCN(S(=O)(=O)c3ccc(C)cc3C)CC2)cc1	inconclusive: 29.1 µM [cytotoxic, single point]	–
CC(C)c1ccc(CNc2n[nH]c(-c3ccco3)n2)cc1	–	inactive: 44.1%
CC(C)Oc1ccc(CNC(=O)Cn2nc(N3CCN(c4ccccc4)CC3)ccc2=O)cc1	–	inactive: 12.2%
Cc1ccc(CNc2nc(NCC3CC3)nc3ccsc23)c(C)c1	inconclusive: 23.1 µM [cytotoxic, single point]	–
Cc1ccc(NC(=O)C2=COCCO2)cc1S(=O)(=O)N1CCOCC1	–	inactive: -26.7%
CCOC(=O)[C@]12CCCC=C1N(Cc1cccc3ccccc13)C(=O)[C@H](CC(=O)NCc1cccs1)C2	active: 16.4 µM	–
CC1CC(C)CN(S(=O)(=O)c2ccc(C(=O)Nc3nnc(C4CC4)o3)cc2)C1 (centres undefined)	active: 5.17 µM	–
CN(Cc1ccc(Cl)cc1Cl)C(=O)c1cccc(S(=O)(=O)N2CCN(c3ccccc3)CC2)c1	inconclusive: 2.06 µM [cytotoxic, full curve, poor fit]	–
O=C(O)C1C2C=CC(O2)C1C(=O)Nc1cccc(C(F)(F)F)c1 (centres undefined)	inconclusive: 20.6 µM [rising, single point]	–
Cn1ncc2c(NCc3ccc(F)cc3)ncnc21	–	inactive: -1.33%
CCOc1ccc(N(C)S(=O)(=O)c2ccc(C)c(C(=O)NCc3cccs3)c2)cc1	inconclusive: 32.6 µM [cytotoxic, single point]	–
N#Cc1ccc(C23OCCN2CCn2nc4ccccc4c23)cc1 (centres undefined)	–	inactive: -6.83%
Cc1cc([N+](=O)[O-])ccc1NC(=O)/C=C/c1cccs1	active: 8.2 µM	–
COc1ccc(CN(C)C[C@@H]2OCCCC[C@@H](C)Oc3ccc(N(C)C)cc3C(=O)N([C@H](C)CO)C[C@@H]2C)cc1	–	inactive: 7.89%
CCOc1nc(C#N)nc(N2CCOCC2)n1	–	inactive: 0.49%
CC(O)c1c(OCc2ccccc2)ncnc1OCc1ccccc1 (centres undefined)	inconclusive: 2.91 µM [cytotoxic, partial curve, poor fit]	–

# Continued:

SMILES,Potency,"activity change, negative = cytotoxicity"
COC(=O)C1CCN(c2csc3ccc(Cl)cc3c2=O)CC1,–,inactive: 3.25%
N#Cc1c(NC(=S)NC(=O)C2CCCC2)sc2c1CCCCC2,"inconclusive: 18.4 µM [cytotoxic, single point]",–
COc1ccccc1N1CCN(C(=O)c2cc(C)oc2C)CC1,"inconclusive: 18.4 µM [cytotoxic, partial curve, poor fit]",–
CCCCn1ccnc1C(=O)c1cc(S(=O)(=O)N2CCOCC2)ccc1C,–,inactive: -19.5%
CCOc1cc(-c2noc(CCC(=O)NC3CCCCC3)n2)ccc1OC,"inconclusive: 8.2 µM [cytotoxic, partial curve]",–
COC(=O)c1sc(N(C)C)c(C#N)c1-c1ccccc1,"inconclusive: 0.651 µM [cytotoxic, full curve, poor fit]",–
CSc1nc(C)cc(C)c1C(N)=O,"inconclusive: 3.66 µM [rising, full curve]",–
CN(C)c1ccc(NC(=O)C2CCCN(S(=O)(=O)c3ccccc3)C2)cc1 (centres undefined),"inconclusive: 16.4 µM [cytotoxic, partial curve]",–
CCC(C)Sc1ccc([C@H]2N[C@@](C)(C(=O)OC)[C@H]3C(=O)N(CC)C(=O)[C@@H]23)cc1OC (some centres undefined),–,inactive: -0.497%
COc1ccc(CCNC(=S)N2CCC(Cc3ccccc3)CC2)cc1OC,active: 14.6 µM,–
Cn1c(CNC2CCCCC2)c(C#N)c2ccccc21,"inconclusive: 13 µM [cytotoxic, partial curve, poor fit]",–
Cc1ccc(C(=O)NCc2ccco2)cc1Br,–,inactive: 14.5%
COc1ccccc1N(CC(O)CN1CCCCC1)S(=O)(=O)c1ccc(C)cc1 (centres undefined),"inconclusive: 9.2 µM [cytotoxic, partial curve]",–
CN(C)S(=O)(=O)N1CCc2ccc(NC(=O)c3ccc(C(F)(F)F)cc3)cc2C1,"inconclusive: 7.31 µM [cytotoxic, partial curve]",–
COc1cc(OC)c(OC)cc1CNCCCSc1nnnn1C,"inconclusive: 29.1 µM [rising, single point]",–
COc1ccccc1NC(=S)N/N=C/c1ccc(O)cc1,active: 20.6 µM,–
O=C(Nc1ccc(N2CCOCC2)c(Cl)c1)c1ccc(S(=O)(=O)N2CCOCC2)cc1,"inconclusive: 14.6 µM [cytotoxic, partial curve]",–
CCCOCC(O)COc1ccccc1C(=O)N1CCOCC1 (centres undefined),–,inactive: 7.06%
COc1ccc(C(=O)N(Cc2cc(OC)c(OC)c(OC)c2)C2CCS(=O)(=O)C2)cc1Cl (centres undefined),–,inactive: 4.11%
Cc1ccc(-c2cc(C(F)F)nc(NCc3cccnc3)n2)cc1,"inconclusive: 14.6 µM [cytotoxic, partial curve]",–
CCc1ccc(NCc2cc3ccc(OC)cc3n(CC(=O)Nc3ccc(C)c(Cl)c3)c2=O)cc1,–,inactive: -14.7%
CCC(C)Sc1nc(O)c(Cc2ccccc2)c(=O)[nH]1 (centres undefined),–,inactive: 5.64%
O=C1Nc2ccccc2C12OCCO2,–,inactive: 15.1%
CSc1ccccc1NC(=O)CN(C)Cc1cccc(Cl)c1,"inconclusive: 20.6 µM [cytotoxic, partial curve]",–
